This passage reports binding results from publication PMC10760973.

Numbering of substitutions follows the chain as printed. These are yes or no findings as the source states them, for the method shown. Binding seen in cells or lysates may run through a third protein. For part of these data: Binding calls can cover weak binding; strength is not graded here. For part of these data: Sequences can lack the tags named with a protein.

The target in one assay is T1, WT CDKL5-3×FLAG (UniProt O76039).
T1 sequence: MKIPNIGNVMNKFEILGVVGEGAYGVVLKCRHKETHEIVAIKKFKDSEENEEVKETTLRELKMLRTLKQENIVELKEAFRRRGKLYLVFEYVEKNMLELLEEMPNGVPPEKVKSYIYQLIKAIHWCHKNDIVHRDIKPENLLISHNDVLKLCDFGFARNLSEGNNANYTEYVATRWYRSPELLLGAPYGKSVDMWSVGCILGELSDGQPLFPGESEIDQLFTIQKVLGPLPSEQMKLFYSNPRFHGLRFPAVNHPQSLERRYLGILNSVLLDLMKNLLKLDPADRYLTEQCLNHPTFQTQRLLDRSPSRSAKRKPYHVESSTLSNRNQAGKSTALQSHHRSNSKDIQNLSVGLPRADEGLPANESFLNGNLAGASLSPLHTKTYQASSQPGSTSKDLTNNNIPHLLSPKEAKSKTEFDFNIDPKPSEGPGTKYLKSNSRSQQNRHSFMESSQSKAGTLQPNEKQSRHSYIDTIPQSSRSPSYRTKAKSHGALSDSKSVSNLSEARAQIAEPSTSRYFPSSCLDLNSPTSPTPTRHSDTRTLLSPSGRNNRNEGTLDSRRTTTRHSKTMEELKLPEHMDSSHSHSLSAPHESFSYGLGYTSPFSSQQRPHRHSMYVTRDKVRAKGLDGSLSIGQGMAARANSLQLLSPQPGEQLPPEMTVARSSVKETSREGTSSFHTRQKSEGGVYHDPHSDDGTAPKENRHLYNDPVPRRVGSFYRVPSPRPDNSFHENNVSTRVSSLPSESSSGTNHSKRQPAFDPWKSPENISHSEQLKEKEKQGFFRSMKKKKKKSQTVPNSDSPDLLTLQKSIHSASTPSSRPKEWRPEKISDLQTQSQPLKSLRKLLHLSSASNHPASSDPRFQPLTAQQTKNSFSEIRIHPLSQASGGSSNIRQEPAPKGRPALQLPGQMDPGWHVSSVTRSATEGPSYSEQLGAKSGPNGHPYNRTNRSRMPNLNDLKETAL
In words: co-IP; anti-FLAG immunoprecipitation of WT or KD CDKL5-3×FLAG from reconstituted CDKL5-KO HeLa cells, mock-infected or infected with SINV/HA-capsid (MOI = 10, 8 hours), with vehicle (DMSO) or BafA1 (100 μM, 2 hours); immunoblot with anti-HA, anti-p62 and anti-FLAG.

The target of assay [1] is T2, kinase-dead CDKL5^K42R-3×FLAG (UniProt O76039).
T2 sequence: T1 sequence with K42R
Described as above.

Assay [2] addresses SINV HA-tagged capsid (Sindbis virus). In words: co-IP; HA-capsid immunoprecipitation (HA pull-down) from CDKL5-WT HeLa cells infected with SINV/HA-capsid (MOI = 10, 7 hours); immunoblot of endogenous CDKL5, p62 and HA-capsid.

Take SINV HA-tagged capsid (Sindbis virus): the binding result (with WT CDKL5-3×FLAG; in assay [1]) was “no binding” in each case.

B1: cyclin-dependent kinase-like 5 (endogenous, HeLa) (enzyme, UniProt O76039 1-960)
chain: T1 sequence
On to B1, for which the binding result in assay [2] is given as “binds”.
